The list shows a part of the results. Values are worked out from sequencing counts and are noisy.
T1: Homer1 EVH1 domain
T1 chain: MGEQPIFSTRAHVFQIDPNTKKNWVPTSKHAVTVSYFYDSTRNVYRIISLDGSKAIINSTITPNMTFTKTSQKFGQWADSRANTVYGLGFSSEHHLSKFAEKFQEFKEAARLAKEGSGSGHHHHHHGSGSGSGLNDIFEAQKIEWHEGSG


Target: T1, Homer1 EVH1 domain
Assay: enrichment score (AUC of log2 frequency ratio across FACS sorting rounds) (log2 AUC); higher = stronger enrichment for Homer1 EVH1 binding

| Binder | enrichment score |
| --- | --- |
| NTCLLRGFSGGILAFLVLEAVAGALVVALWGPLQDS | 1.91 |
| MDPSADTWDLFSPLISLWINRFYIYLGFAVSISLWI | -3.53 |
| MRVALGMLWLLALAWPPQARGFCPSQCSRSLHIMGD | 0.999 |
| WGILAMKPHFLKINVSELSLWVILGCFWLFGTVILK | 2.76 |
| DYFLKMFFGSAALGTLTGLISALVLKHIDLRKTPSL | 2.71 |
| SFKWNFIKQYWQFATSAAAVCINFIIIMLLNLAYEK | -0.181 |
| YLMMPIVNISEVLGPLCLMLLVGTVHCQIVSTQITR | 3.61 |
| RHVVRLYDFFLACHPLIPIYFAAVIVLYREQEVLDC | 1.26 |
| AMAYDRFAAICHPLNYQMIMNKGVFMKLIIFSWALG | -1.63 |
| MMVVLLGATTLVLVAVAPWVLSAAAGGKNLKSPQKV | 2.9 |
| EGAQEKTNLEIIILVGTAVIAMFFWLLLVIILRTVK | -0.242 |
| HMEYTLRTRKCVSNVMIALTWALSAVISLAPLLFGW | 1.5 |
| MNNAGHGPTRRLRDLGVLAGVALLAALWLLWLLGSA | -0.758 |
| LPAFSGLTWAPFLFLFTYLPPFLNLLTVGFVSYFLV | 3.71 |
| MASRLTLLTLLLLLLAGDRASSNPNATSSSSQDPES | 3.72 |
| TEGFLLRLLYSGLIIAHCSLEILGRNDPPASASKVA | -0.999 |
| NFTYSLSVVLISYTLIVVAVLRMRSADGRRKAFSTC | 1.04 |
| PGLRVPKTLVLVVAAVLLLVSAESALITQQDLAPQQ | 2.4 |
| MFANLKYVSLGILVFQTTSLVLTMRYSRTLKEEGPR | 1.83 |
| HPASRNKKILNKKKLKRKQKSKSKVKTRSKSENLEN | -0.779 |
| HDRGRFFTILGLFCAGQGVFWASMAVAAVSRPPVPA | 3.07 |
| KYEGRSYEEKKQFLKDYFHKKPYPSKKEIELLSSLF | 0.252 |

| Binder | enrichment score |
| --- | --- |
| YVGIYILIAVGAVMMFVGFLGCYGAIQESQCLLGTF | 2.41 |
| PPLLFAPSVAAFCGFLPPPPWLFEAFCPRRRGFLLP | 3.67 |
| SWLVSFLIIFPALMLLLKLHYCRSNIIDHFTCDYFP | 1.15 |
| FWQVLLTGLISFSTASIIIGYVVIKFNKDSWDLQSC | -0.793 |
| IKEPGGYVSNLRKICSPEAGLAEYLFDKLTLGGRVK | 1.42 |
| NYWLEIFDNFAASLNLLMLAFLEVVGVVYVYGMKRS | 2.64 |
| LCVVLYVASSLFLIVMYFFFRVRSRRWKVKHHHPAV | 3.09 |
| EAIATFGGAVAAFAVGYVKVNWDLLGELALVVFSVA | -2.17 |
| PPPEFYPGPPMMDGAMGYVQPPPPPYPGPMEPPVSG | 6.2 |
| RCLGKSKGRTHPRIDPDVIHRLRKFYKPFNLMFYQM | -0.143 |
| LVLLSRFDRLLFQSYLFILGIYTITLCSLWALWGGE | 2.43 |
| SLEMLDAAKNKMRVKISYLMIALTVVGCIFMVIEGK | 3.7 |
| ELSVTQEHIFSKAFFYFVCLDILLYSGFVYRTFEEC | -0.162 |
| VAAAVPALLALILIFMETQITALIVSQKARRLLKGS | 2.54 |
| KTISFNNCIVQLFFFILLGVTEFYLLAAMSYDRYVA | 1.9 |
| QGFFRNKILVIAIVFQVCIGCFLCYCPGMPNIFNFM | -2.02 |
| KPHTSLSFLSASLCHFILISCLYVSAYLQSCKHIRR | 2.03 |
| LYPNIMTGHLYAKLVILCWVCGFLWFLIPIVLISQM | 3.46 |
| WGFILGFVLGAVSPAVVVPSMLLLQGGGYGVEKGVP | 0.443 |
| RGASSISQPSISLGHKTSYSPVTHKVNAAKASRRLL | 1 |
| RNIQAGNYTAHQINIGYYLTLLFLYGVALTERGKKE | 2.12 |
| RVCENCMEMDVMSVATIVIVDICITGGLLLLVYYWS | -2.77 |
